PubChem BioAssay AID1159578 | Peter MacCallum Cancer Centre | 2015
Screen: 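Genome-wide hunt for genes controlling movement of lymphatic endothelial cells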 (primary screen). Cell system: human lymphatic endothelial cells. Reagents: siRNA pool against human genes, 40 nM. Timing: 48 h after transfection. Measurement: 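Cells stained with dye and imaged after a scratch; covered wound area and nuclei counted, duplicates averaged, migration set against mock wells and turned into a robust z-score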. Scale: migration robust z-score: higher = faster migration into the scratch; nuclei per well: higher = more cells in the well. Rule for the call: 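Migration changed when robust z exceeds 2 or falls below -2 and mean nuclei number is at least 3300; otherwise not called changed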. Calls: active = migration changed; inactive = no migration change, or too few cells.
The deposit covers about 18,000 reagents; below is a part drawn at random. In the full data, about 1,030 (5.7%) were called active. 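Inactive calls also include pools with fewer than 3300 nuclei, whose migration was not assessed.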 The raw values are shown without normalisation. Entries without a mark were called inactive. Further read-outs or replicates are left out here.

Against P2RY1, the entry reads migration robust z-score 0.7; nuclei per well, duplicate mean 6456.
FIGNL1 gave migration robust z-score 0.49; nuclei per well, duplicate mean 6440.
Against DEFB107B the deposit lists migration robust z-score 0.3; nuclei per well, duplicate mean 5634.
Against IGFBPL1 the deposit lists migration robust z-score -0.13; nuclei per well, duplicate mean 6085.
GSTP1 scored migration robust z-score -0.95; nuclei per well, duplicate mean 7354.
Against TPI1 the deposit lists migration robust z-score 0.1; nuclei per well, duplicate mean 7870.
With knock-down of SNX16, the record shows migration robust z-score 0.16; nuclei per well, duplicate mean 6158.
Depletion of DCLRE1B gave: migration robust z-score 0.17; nuclei per well, duplicate mean 6069.
Depletion of CORIN resulted in: migration robust z-score 0.49; nuclei per well, duplicate mean 5513.
After knock-down of RARS1 the results were migration robust z-score 0.86; nuclei per well, duplicate mean 4540.
After knock-down of KRTAP19-6, the record shows migration robust z-score -1.06; nuclei per well, duplicate mean 2612.
RPL22 scored migration robust z-score -1.24; nuclei per well, duplicate mean 5356.

Reprinted from the entries so far for reference:
GSTP1 | migration robust z-score = -0.95; nuclei per well, duplicate mean = 7354
TPI1 | migration robust z-score = 0.1; nuclei per well, duplicate mean = 7870

Additional entries follow:
MCM3AP showed migration robust z-score 0.56; nuclei per well, duplicate mean 5180.
Silencing of TEX12 gave: migration robust z-score 0.94; nuclei per well, duplicate mean 6570.
Against CHTF8, the values are migration robust z-score 0.27; nuclei per well, duplicate mean 6416.
With knock-down of SCAND1, the record shows migration robust z-score -0.24; nuclei per well, duplicate mean 6070.
For RAB11FIP4 the deposit lists migration robust z-score 0.46; nuclei per well, duplicate mean 4572.
Against ALB the deposit lists migration robust z-score -0.52; nuclei per well, duplicate mean 5795.
Against PPP1R18 the deposit lists migration robust z-score -1.29; nuclei per well, duplicate mean 5734.
Depletion of DOCK7 resulted in: migration robust z-score 0.02; nuclei per well, duplicate mean 6176.
RAB44 gave migration robust z-score -0.4; nuclei per well, duplicate mean 5852.
